Binding data for 1 substance are collected here from article PMC11056707.

Sequences of proteins named here, by UniProt entry; tags and fusion partners are left off.
UniProt P53350: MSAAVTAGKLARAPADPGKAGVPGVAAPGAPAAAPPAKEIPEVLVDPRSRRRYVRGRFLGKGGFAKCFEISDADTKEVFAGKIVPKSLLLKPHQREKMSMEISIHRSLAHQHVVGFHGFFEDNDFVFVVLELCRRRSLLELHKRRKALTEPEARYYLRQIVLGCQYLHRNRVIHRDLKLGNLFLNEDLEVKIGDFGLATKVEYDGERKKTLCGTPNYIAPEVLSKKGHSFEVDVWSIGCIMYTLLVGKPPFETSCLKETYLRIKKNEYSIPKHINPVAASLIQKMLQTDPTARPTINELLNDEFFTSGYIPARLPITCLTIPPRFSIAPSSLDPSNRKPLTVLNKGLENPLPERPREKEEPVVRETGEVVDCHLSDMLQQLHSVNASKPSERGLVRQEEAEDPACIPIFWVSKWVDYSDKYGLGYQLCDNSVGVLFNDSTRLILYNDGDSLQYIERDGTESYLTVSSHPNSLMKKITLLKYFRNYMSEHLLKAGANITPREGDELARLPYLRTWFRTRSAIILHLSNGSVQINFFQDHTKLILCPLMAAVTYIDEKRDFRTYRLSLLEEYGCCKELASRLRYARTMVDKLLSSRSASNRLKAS
UniProt O94964: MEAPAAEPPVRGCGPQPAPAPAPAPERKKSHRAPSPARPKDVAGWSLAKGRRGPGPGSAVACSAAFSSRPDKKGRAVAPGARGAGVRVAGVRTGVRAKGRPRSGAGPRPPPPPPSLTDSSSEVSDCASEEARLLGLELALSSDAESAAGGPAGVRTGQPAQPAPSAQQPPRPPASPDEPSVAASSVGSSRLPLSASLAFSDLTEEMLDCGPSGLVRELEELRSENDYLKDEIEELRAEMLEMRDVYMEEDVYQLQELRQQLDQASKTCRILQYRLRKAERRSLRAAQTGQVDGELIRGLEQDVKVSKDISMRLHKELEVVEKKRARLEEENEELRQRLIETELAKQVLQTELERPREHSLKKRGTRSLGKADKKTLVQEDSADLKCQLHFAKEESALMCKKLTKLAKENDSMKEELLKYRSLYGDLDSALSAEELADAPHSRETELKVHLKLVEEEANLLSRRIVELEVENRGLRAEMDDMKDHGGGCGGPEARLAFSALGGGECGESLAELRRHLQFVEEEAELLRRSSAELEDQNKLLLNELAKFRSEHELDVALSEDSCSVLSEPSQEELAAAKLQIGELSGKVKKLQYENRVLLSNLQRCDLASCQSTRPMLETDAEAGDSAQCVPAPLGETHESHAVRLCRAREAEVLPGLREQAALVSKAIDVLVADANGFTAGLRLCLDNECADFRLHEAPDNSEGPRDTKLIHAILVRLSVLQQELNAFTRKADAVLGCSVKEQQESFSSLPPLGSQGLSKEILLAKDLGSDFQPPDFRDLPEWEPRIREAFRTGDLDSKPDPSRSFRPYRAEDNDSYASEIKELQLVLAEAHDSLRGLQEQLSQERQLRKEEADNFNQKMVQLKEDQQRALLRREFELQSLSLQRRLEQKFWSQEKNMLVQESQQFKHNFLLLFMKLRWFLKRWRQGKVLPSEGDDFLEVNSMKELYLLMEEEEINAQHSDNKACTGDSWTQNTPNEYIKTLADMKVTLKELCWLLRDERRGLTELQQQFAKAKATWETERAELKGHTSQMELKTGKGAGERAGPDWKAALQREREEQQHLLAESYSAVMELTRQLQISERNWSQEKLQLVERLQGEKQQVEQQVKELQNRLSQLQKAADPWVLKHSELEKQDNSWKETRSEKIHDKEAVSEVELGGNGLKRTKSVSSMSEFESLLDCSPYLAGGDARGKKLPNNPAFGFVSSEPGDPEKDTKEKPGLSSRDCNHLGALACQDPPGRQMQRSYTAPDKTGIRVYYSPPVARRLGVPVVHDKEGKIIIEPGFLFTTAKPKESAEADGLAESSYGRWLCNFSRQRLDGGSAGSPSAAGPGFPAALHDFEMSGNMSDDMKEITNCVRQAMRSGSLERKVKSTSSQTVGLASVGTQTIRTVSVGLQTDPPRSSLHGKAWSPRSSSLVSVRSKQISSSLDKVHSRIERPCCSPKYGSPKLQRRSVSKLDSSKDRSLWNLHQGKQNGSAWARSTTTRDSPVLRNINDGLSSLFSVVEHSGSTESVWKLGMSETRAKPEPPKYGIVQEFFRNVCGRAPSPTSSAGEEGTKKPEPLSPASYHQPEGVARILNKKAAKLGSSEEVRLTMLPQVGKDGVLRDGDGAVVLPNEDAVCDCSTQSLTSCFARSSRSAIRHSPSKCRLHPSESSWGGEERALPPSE

These are yes or no findings as the source states them, for the method shown. In cells and extracts the contact can be indirect. Some results given as binding are weak or reduced against the parent protein; the word gives no strength.

In the assay the target is HA-PLK1 (UniProt P53350). In words: co-IP; HEK293T cells transfected with Flag-Soga1 and HA-PLK1; lysates immunoprecipitated with Flag or HA antibodies; lysis buffer 20 mM Tris-HCl pH 8.0, 100 mM NaCl, 0.5% NP-40; 4°C.

For “Flag-Soga1 (suppressor of glucose by autophagy 1) (from UniProt O94964 1-1661)”, the binding entry is on record as “binds”.
